± gives the standard deviation of the averaged measurements. The entries are a selection whose mix differs from that of the whole data set.
These targets were tested with Nc1ncnc2c1ncn2[C@@H]1O[C@H](COP(=O)(O)OP(=O)(O)NP(=O)(O)O)[C@@H](O)[C@H]1O [adenylyl imidodiphosphate] (assay: NP40-soluble protein abundance relative to vehicle (solubility fold change) (ratio); higher = more soluble protein in presence of AMP-PNP). Conditions: concentration: 1mM.
Outline: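 Each value is a fold change relative to the detergent-processed vehicle, calculated per replicate from vsn-normalised intensities. Jurkat crude lysate received eight concentrations (0.1 to 10 mM) for 10 min at room temperature and 3 min at 37 °C, then was solubilised in 0.8% NP40 with benzonase (60 min, 4 °C). The ultracentrifuged supernatant was TMT-labelled and run by LC-MS/MS in three independent experiments.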

Chains of the proteins cited; added tags and fusions are not shown. Lines headed by an entry give the natural chain unless they say otherwise; changes in a name come on top.
UniProt Q96MG7: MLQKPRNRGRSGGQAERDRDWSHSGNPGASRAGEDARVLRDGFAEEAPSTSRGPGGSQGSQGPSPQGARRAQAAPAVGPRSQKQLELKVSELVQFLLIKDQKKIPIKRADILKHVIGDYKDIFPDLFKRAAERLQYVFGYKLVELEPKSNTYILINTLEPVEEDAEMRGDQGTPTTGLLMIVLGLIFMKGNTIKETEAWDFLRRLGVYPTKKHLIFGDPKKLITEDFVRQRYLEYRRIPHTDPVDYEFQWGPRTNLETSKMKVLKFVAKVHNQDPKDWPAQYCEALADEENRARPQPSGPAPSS
UniProt Q96DA6: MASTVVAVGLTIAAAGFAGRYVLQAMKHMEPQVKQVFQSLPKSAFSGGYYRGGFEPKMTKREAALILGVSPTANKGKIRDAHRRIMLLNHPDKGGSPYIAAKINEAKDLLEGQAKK
UniProt Q96I24: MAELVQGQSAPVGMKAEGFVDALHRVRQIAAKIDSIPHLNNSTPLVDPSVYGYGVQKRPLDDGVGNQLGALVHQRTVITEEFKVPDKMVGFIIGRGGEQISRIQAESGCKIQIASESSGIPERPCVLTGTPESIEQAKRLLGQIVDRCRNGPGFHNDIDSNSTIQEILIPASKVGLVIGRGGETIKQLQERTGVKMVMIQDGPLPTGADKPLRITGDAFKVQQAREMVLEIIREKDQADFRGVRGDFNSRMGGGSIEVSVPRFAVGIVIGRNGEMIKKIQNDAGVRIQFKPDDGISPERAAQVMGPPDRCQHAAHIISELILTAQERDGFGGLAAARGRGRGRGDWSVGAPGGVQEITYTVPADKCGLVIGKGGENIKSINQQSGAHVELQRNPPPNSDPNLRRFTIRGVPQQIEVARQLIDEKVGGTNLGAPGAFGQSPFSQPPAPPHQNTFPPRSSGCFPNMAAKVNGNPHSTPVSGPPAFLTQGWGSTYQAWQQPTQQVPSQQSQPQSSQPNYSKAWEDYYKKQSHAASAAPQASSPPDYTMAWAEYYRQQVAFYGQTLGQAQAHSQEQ
UniProt Q96C36: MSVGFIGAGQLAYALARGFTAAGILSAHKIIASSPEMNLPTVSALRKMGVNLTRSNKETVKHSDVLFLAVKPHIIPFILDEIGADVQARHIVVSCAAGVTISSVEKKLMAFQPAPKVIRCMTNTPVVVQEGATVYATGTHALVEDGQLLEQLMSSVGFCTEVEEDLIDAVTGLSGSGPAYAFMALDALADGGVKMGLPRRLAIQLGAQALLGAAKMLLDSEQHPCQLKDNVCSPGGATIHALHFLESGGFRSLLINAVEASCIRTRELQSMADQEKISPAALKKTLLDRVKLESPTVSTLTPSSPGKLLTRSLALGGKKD
UniProt Q96EA4: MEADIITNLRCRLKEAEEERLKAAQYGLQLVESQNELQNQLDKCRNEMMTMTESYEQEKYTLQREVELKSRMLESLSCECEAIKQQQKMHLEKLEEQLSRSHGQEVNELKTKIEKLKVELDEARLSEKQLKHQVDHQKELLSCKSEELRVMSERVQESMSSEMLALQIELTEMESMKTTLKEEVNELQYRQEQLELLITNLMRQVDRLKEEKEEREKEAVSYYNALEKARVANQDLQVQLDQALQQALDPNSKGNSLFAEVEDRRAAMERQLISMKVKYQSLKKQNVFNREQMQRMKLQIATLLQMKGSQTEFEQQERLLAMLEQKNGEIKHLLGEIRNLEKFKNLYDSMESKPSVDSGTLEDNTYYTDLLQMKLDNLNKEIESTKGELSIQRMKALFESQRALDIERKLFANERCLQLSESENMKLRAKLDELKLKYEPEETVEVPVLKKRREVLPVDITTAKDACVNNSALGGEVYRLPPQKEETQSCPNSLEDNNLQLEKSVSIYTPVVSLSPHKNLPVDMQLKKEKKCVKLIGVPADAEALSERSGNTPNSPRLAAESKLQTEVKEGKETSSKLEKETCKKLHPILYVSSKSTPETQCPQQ
UniProt Q96M27: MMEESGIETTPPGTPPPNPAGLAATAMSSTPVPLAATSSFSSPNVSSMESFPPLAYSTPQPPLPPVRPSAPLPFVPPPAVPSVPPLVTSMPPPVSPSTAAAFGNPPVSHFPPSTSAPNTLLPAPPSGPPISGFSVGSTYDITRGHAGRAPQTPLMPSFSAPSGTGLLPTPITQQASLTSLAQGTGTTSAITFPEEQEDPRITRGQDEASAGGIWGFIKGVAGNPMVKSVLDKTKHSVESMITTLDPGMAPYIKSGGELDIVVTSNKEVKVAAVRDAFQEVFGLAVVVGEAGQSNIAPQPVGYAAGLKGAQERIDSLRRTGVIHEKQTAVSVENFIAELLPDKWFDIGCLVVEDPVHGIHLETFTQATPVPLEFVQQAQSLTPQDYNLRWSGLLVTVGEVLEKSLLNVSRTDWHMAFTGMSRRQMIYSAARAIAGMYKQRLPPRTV
UniProt Q969M3: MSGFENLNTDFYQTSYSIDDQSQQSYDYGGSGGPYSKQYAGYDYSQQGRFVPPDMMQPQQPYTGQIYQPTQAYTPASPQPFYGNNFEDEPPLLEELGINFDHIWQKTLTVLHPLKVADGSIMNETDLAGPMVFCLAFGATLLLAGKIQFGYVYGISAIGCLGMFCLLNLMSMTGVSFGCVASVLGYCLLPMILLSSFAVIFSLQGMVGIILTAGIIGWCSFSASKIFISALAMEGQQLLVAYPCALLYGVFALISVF
UniProt Q96HE7: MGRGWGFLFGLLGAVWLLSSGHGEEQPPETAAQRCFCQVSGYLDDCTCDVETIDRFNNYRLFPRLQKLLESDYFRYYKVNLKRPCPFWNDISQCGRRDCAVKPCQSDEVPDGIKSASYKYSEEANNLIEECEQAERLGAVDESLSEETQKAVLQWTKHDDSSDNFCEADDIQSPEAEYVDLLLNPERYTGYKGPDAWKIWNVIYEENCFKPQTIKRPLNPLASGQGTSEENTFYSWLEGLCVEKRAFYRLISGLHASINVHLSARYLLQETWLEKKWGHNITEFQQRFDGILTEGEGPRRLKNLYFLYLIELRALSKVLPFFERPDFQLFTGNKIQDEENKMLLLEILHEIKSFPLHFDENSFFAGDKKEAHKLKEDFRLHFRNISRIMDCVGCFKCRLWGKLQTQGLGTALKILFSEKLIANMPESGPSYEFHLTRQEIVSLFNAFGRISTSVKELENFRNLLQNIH
UniProt Q96G28: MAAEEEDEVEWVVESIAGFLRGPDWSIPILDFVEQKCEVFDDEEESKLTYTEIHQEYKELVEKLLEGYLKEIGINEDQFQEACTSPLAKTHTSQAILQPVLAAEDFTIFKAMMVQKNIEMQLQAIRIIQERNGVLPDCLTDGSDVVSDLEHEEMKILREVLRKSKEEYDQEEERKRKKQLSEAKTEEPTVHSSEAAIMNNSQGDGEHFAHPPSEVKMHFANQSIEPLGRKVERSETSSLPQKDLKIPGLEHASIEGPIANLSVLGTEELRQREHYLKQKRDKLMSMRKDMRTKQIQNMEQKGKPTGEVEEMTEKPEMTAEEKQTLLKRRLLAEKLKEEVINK
UniProt Q969F1: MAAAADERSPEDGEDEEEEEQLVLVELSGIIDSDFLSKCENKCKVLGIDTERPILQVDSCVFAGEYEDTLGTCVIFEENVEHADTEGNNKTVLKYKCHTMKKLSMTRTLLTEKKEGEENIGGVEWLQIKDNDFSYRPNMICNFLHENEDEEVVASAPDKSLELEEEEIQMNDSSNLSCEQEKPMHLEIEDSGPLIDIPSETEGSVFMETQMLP
UniProt Q96EZ8, whole entry: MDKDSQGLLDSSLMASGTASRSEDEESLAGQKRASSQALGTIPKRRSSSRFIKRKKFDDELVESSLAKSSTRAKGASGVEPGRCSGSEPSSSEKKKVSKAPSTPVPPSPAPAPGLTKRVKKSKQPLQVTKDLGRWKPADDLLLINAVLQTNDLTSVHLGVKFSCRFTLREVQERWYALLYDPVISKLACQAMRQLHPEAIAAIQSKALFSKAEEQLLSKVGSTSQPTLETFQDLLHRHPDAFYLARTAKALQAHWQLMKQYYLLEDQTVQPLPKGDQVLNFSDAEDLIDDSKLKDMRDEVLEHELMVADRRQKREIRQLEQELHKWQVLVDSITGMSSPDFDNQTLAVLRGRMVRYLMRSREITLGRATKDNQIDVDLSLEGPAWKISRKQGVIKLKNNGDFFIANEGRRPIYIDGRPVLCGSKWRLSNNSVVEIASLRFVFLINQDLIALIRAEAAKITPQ
UniProt Q96PK6: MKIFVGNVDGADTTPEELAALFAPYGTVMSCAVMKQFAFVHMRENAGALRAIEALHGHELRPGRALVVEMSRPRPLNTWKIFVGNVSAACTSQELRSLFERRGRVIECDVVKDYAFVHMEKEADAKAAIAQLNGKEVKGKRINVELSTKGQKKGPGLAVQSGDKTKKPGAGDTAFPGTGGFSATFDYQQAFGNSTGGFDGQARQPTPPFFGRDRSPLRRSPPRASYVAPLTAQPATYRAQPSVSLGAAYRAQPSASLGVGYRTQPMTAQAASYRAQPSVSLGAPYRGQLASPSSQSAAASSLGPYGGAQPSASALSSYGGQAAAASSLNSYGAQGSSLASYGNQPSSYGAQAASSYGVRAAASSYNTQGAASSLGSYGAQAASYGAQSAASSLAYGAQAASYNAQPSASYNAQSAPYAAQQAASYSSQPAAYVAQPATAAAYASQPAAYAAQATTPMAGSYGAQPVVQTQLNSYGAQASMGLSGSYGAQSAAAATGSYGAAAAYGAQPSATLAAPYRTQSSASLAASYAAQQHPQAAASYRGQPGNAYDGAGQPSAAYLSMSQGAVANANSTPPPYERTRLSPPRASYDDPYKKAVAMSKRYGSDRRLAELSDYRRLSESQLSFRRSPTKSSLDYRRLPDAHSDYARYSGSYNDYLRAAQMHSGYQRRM
UniProt Q96GY3: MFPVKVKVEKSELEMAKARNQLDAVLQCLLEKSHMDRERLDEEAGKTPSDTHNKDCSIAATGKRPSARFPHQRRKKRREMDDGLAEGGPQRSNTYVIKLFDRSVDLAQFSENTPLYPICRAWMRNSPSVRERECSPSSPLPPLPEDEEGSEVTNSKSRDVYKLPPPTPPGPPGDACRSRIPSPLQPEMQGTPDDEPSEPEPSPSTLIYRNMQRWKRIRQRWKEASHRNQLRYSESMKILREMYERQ
UniProt Q96MX6, whole entry: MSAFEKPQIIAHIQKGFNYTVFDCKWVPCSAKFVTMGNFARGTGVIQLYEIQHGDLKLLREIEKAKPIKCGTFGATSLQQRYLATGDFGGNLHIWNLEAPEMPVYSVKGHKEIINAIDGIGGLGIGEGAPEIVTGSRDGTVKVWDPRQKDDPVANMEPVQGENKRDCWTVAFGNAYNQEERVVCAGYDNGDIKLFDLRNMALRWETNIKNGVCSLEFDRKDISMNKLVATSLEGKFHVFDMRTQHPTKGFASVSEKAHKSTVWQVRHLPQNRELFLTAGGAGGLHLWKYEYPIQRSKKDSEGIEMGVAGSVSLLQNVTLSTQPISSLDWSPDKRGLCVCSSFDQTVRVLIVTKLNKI
UniProt Q96DT6: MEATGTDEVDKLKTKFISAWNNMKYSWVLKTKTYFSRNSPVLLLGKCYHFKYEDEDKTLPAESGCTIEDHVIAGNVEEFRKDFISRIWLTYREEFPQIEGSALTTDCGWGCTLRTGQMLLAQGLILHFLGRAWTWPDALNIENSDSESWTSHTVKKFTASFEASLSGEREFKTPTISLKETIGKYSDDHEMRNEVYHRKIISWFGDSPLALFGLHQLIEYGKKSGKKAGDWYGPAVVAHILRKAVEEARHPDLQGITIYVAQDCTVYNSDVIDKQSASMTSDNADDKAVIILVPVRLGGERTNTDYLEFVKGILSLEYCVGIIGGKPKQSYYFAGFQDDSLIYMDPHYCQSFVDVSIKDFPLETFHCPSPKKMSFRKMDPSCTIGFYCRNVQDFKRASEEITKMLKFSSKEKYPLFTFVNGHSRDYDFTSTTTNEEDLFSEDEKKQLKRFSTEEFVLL
UniProt Q96CP6, whole entry: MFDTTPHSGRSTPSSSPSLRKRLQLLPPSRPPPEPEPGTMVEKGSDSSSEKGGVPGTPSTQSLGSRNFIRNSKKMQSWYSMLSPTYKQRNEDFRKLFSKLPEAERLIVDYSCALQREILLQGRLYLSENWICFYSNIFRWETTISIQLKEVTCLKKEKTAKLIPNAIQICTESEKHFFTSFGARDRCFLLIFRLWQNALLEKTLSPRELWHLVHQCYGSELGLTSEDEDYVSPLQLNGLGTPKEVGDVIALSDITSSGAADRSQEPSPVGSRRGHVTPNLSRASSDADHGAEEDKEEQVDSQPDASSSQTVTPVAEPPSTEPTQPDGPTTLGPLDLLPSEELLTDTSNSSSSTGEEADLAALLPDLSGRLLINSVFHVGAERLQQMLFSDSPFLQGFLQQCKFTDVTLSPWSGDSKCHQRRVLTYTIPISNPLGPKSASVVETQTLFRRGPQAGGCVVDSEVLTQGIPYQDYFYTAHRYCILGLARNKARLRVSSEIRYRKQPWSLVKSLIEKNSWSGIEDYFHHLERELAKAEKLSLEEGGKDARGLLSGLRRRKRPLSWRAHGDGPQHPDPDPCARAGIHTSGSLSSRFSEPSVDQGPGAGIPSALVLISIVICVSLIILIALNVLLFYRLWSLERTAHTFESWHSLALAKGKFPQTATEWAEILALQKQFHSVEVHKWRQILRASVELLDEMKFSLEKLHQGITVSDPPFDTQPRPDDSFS

Target | NP40-soluble protein abundance
UniProt Q96MG7 | 0.966 ± 0.035
UniProt Q96DA6 and related entries | 0.997 ± 0.036
FUBP3 (UniProt Q96I24) | 1.01 ± 0.02
PYCR2 (UniProt Q96C36) | 0.98 ± 0.028
UniProt Q96EA4 | 0.9953 ± 0.0059
PRRC1 (UniProt Q96M27) | 1.03 ± 0.085
UniProt Q969M3 and related entries | 1.01 ± 0.014
UniProt Q96HE7 | 1.05 ± 0.013
UniProt Q96G28 and related entries | 0.997 ± 0.055
GTF3C6 (UniProt Q969F1) | 1.04 ± 0.045
UniProt Q96EZ8 and related entries | 1.02 ± 0.014
RBM14 (UniProt Q96PK6) | 1.07 ± 0.049
LIN37 (UniProt Q96GY3) | 0.969 ± 0.029
WDR92 (UniProt Q96MX6) | 0.98 ± 0.021
ATG4C (UniProt Q96DT6) | 0.992 ± 0.074

Same assay, conditions: concentration: 2mM

Target | NP40-soluble protein abundance
METTL2A (UniProt Q96IZ6) | 1 ± 0.0024
CHCHD1 (UniProt Q96BP2) | 1.051 ± 0.0023
UniProt Q92997 and related entries | 1.03 ± 0.059
SNF8 (UniProt Q96H20) | 0.995 ± 0.039
SMARCD1 (UniProt Q96GM5) | 0.97 ± 0.12
UniProt Q96PE3 and related entries | 0.936 ± 0.061
UniProt Q96B01 and related entries | 1.08 ± 0.0072
UniProt Q96Q45 and related entries | 1.02 ± 0.04
ZFR (UniProt Q96KR1) | 1.06 ± 0.058
FAHD2A (UniProt Q96GK7) | 0.954 ± 0.086
CCDC124 (UniProt Q96CT7) | 1.29 ± 0.15
UniProt Q93073 and related entries | 1.01 ± 0.046
UniProt Q92973 and related entries | 0.912 ± 0.066
UniProt Q96B36 and related entries | 1.03 ± 0.079
SLC7A6OS (UniProt Q96CW6) | 1.06 ± 0.071
UniProt Q96CB8 and related entries | 1.11 ± 0.053
UniProt Q96GX9 and related entries | 0.988 ± 0.0058
TOE1 (UniProt Q96GM8) | 0.971 ± 0.12
UniProt Q96CP6 and related entries | 1.02 ± 0.018
EAF1 (UniProt Q96JC9) | 1.06 ± 0.081

Target | NP40-soluble protein abundance
HSPBAP1 (UniProt Q96EW2) | 0.958 ± 0.012
DNAJA3 (UniProt Q96EY1) | 1.02 ± 0.077
UniProt Q96Q11 and related entries | 1.02 ± 0.051
MMAB (UniProt Q96EY8) | 1.05 ± 0.048
UniProt Q96N16 and related entries | 1.1 ± 0.028
UniProt Q96MG7 | 1.01 ± 0.022
UniProt Q96DA6 and related entries | 1 ± 0.025
FUBP3 (UniProt Q96I24) | 1.04 ± 0.029
PYCR2 (UniProt Q96C36) | 1.01 ± 0.051
UniProt Q96EA4 | 1.05 ± 0.019
PRRC1 (UniProt Q96M27) | 1.01 ± 0.085
UniProt Q969M3 and related entries | 1.024 ± 0.0049
UniProt Q96HE7 | 1.06 ± 0.036
UniProt Q96G28 and related entries | 1.07 ± 0.043
GTF3C6 (UniProt Q969F1) | 1.07 ± 0.042
UniProt Q96EZ8 and related entries | 0.991 ± 0.0078
RBM14 (UniProt Q96PK6) | 1.16 ± 0.089
LIN37 (UniProt Q96GY3) | 1 ± 0.047
WDR92 (UniProt Q96MX6) | 0.972 ± 0.039
ATG4C (UniProt Q96DT6) | 0.965 ± 0.089

Same assay, conditions: concentration: 4mM

Target | NP40-soluble protein abundance
METTL2A (UniProt Q96IZ6) | 0.974 ± 0.014
CHCHD1 (UniProt Q96BP2) | 1.01 ± 0.013
UniProt Q92997 and related entries | 1.01 ± 0.015
SNF8 (UniProt Q96H20) | 0.981 ± 0.048
SMARCD1 (UniProt Q96GM5) | 1.03 ± 0.11
UniProt Q96PE3 and related entries | 0.971 ± 0.012
UniProt Q96B01 and related entries | 1.05 ± 0.021
UniProt Q96Q45 and related entries | 1.038 ± 0.01
ZFR (UniProt Q96KR1) | 1.06 ± 0.089
FAHD2A (UniProt Q96GK7) | 1 ± 0.019
CCDC124 (UniProt Q96CT7) | 1.35 ± 0.058
UniProt Q93073 and related entries | 0.978 ± 0.039
UniProt Q92973 and related entries | 1.03 ± 0.015
UniProt Q96B36 and related entries | 0.986 ± 0.052
SLC7A6OS (UniProt Q96CW6) | 1.05 ± 0.042
UniProt Q96CB8 and related entries | 1.17 ± 0.1
UniProt Q96GX9 and related entries | 0.998 ± 0.021
TOE1 (UniProt Q96GM8) | 1.03 ± 0.048
UniProt Q96CP6 and related entries | 1.01 ± 0.032
EAF1 (UniProt Q96JC9) | 1.03 ± 0.02

Target | NP40-soluble protein abundance
HSPBAP1 (UniProt Q96EW2) | 0.9721 ± 0.005
DNAJA3 (UniProt Q96EY1) | 0.993 ± 0.023
UniProt Q96Q11 and related entries | 1.036 ± 0.0085
MMAB (UniProt Q96EY8) | 1 ± 0.037
UniProt Q96N16 and related entries | 1.09 ± 0.054
UniProt Q96MG7 | 0.957 ± 0.049
UniProt Q96DA6 and related entries | 1 ± 0.048
FUBP3 (UniProt Q96I24) | 0.996 ± 0.025
PYCR2 (UniProt Q96C36) | 0.997 ± 0.013
UniProt Q96EA4 | 1 ± 0.043
PRRC1 (UniProt Q96M27) | 1.01 ± 0.071
UniProt Q969M3 and related entries | 1.0062 ± 0.00062
UniProt Q96HE7 | 1.04 ± 0.035
UniProt Q96G28 and related entries | 0.966 ± 0.083
GTF3C6 (UniProt Q969F1) | 1.04 ± 0.032
UniProt Q96EZ8 and related entries | 1.04 ± 0.015
RBM14 (UniProt Q96PK6) | 1.23 ± 0.12
LIN37 (UniProt Q96GY3) | 0.994 ± 0.034
WDR92 (UniProt Q96MX6) | 1.03 ± 0.037
ATG4C (UniProt Q96DT6) | 1.03 ± 0.12

Source: the supplement of paper PMC6411743
